Taken from: PubChem BioAssay AID652272 (Drosophila RNAi Screening Center, 2013)
Purpose: 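Finding fly genes that regulate Hedgehog signal transduction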 (primary screen). System: Drosophila clone 8 (Cl8) cells. Knock-down reagent: long dsRNA against Drosophila genes. Detection: 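Firefly light from a Hedgehog-responsive ptc promoter reporter and Renilla reference light, both read on a plate reader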. Direction: firefly Hh reporter signal: higher = more ptc reporter light; Renilla reference signal: higher = more Renilla control light. Active means: 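Called a hit if the two-replicate mean z-score lies below -2 or above +3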. Meaning of the calls: active = hit: reporter lowered or raised; inactive = not a hit.
The screen tested about 21,000 reagents; this is an unselected part of those that have a named target and a result. In the full data, 503 (2.4%) are marked active. 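Raw plate light values, not normalised; calls rest on replicate z-scores that were not deposited; hits include reporter decreases as well as increases.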 Entries without a mark were called inactive. Not stated in the record: the amount of reagent, the time to read-out.

Knock-down of CG13063 [DRSC09946] came out at: firefly Hh reporter signal, replicate 1 = 1.95e5; Renilla reference signal, replicate 1 = 2327; Renilla reference signal, replicate 2 = 5480.
For Actn [DRSC17724], the entry reads firefly Hh reporter signal, replicate 1 = 75628; firefly Hh reporter signal, replicate 2 = 62888; Renilla reference signal, replicate 1 = 1751; Renilla reference signal, replicate 2 = 2056.
Silencing of Argp [DRSC16510] came out at: firefly Hh reporter signal, replicate 1 = 93572; firefly Hh reporter signal, replicate 2 = 1.24e5; Renilla reference signal, replicate 1 = 3204; Renilla reference signal, replicate 2 = 3370.
With knock-down of Ythdf [DRSC16036], the record shows firefly Hh reporter signal, replicate 1 = 4.51e5; firefly Hh reporter signal, replicate 2 = 99707; Renilla reference signal, replicate 1 = 22585; Renilla reference signal, replicate 2 = 2829.
After knock-down of Ythdf [DRSC16037] the results were firefly Hh reporter signal, replicate 1 = 5.24e5; firefly Hh reporter signal, replicate 2 = 1.17e5; Renilla reference signal, replicate 1 = 26298; Renilla reference signal, replicate 2 = 3732.
For Muc4B [DRSC18062] the deposit lists firefly Hh reporter signal, replicate 1 = 49101; firefly Hh reporter signal, replicate 2 = 1.66e5; Renilla reference signal, replicate 1 = 2082; Renilla reference signal, replicate 2 = 8530.
Muc4B [DRSC18063] showed firefly Hh reporter signal, replicate 1 = 94672; firefly Hh reporter signal, replicate 2 = 2.73e5; Renilla reference signal, replicate 1 = 3565; Renilla reference signal, replicate 2 = 11234.
mtd [DRSC12131] showed firefly Hh reporter signal, replicate 1 = 1.62e5; firefly Hh reporter signal, replicate 2 = 1.18e5; Renilla reference signal, replicate 1 = 6000; Renilla reference signal, replicate 2 = 4969.
After knock-down of mtd [DRSC12380], the record shows firefly Hh reporter signal, replicate 1 = 99195; firefly Hh reporter signal, replicate 2 = 1.18e5; Renilla reference signal, replicate 1 = 4857; Renilla reference signal, replicate 2 = 4859.
Against mtd [DRSC12381], the values are firefly Hh reporter signal, replicate 1 = 93824; firefly Hh reporter signal, replicate 2 = 1.80e5; Renilla reference signal, replicate 1 = 3076; Renilla reference signal, replicate 2 = 4832.
Against jb [DRSC20531] the deposit lists firefly Hh reporter signal, replicate 1 = 73090; firefly Hh reporter signal, replicate 2 = 2.08e5; Renilla reference signal, replicate 1 = 1671; Renilla reference signal, replicate 2 = 9419.
For tai [DRSC02207], the entry reads firefly Hh reporter signal, replicate 1 = 37872; firefly Hh reporter signal, replicate 2 = 15953; Renilla reference signal, replicate 1 = 1376; Renilla reference signal, replicate 2 = 1803.
For tai [DRSC02673], the entry reads firefly Hh reporter signal, replicate 1 = 94240; firefly Hh reporter signal, replicate 2 = 55675; Renilla reference signal, replicate 1 = 2210; Renilla reference signal, replicate 2 = 3575.
After knock-down of Npc2b [DRSC15464], the record shows firefly Hh reporter signal, replicate 1 = 71540; firefly Hh reporter signal, replicate 2 = 91185; Renilla reference signal, replicate 1 = 2456; Renilla reference signal, replicate 2 = 1939.
For CG6163 [DRSC10595], the values are firefly Hh reporter signal, replicate 1 = 34201; firefly Hh reporter signal, replicate 2 = 59612; firefly Hh reporter signal, replicate 3 = 40036; Renilla reference signal, replicate 1 = 7709; Renilla reference signal, replicate 2 = 3084.
Knock-down of jim [DRSC11889] came out at: firefly Hh reporter signal, replicate 1 = 1.72e5; firefly Hh reporter signal, replicate 2 = 1.33e5; Renilla reference signal, replicate 1 = 5856; Renilla reference signal, replicate 2 = 4221.
Against Crys [DRSC03294] the deposit lists firefly Hh reporter signal, replicate 1 = 1.03e5; firefly Hh reporter signal, replicate 2 = 62378; Renilla reference signal, replicate 1 = 3949; Renilla reference signal, replicate 2 = 2725.
After knock-down of CG15356 [DRSC00386], the record shows firefly Hh reporter signal, replicate 1 = 72346; firefly Hh reporter signal, replicate 2 = 87094; Renilla reference signal, replicate 1 = 1752; Renilla reference signal, replicate 2 = 2152.

Targets listed so far whose target name starts with T or t (2):
tai [DRSC02207]: firefly Hh reporter signal, replicate 1 = 37872; firefly Hh reporter signal, replicate 2 = 15953; Renilla reference signal, replicate 1 = 1376; Renilla reference signal, replicate 2 = 1803
tai [DRSC02673]: firefly Hh reporter signal, replicate 1 = 94240; firefly Hh reporter signal, replicate 2 = 55675; Renilla reference signal, replicate 1 = 2210; Renilla reference signal, replicate 2 = 3575

More reagents follow:
With knock-down of Meics [DRSC11413], the record shows firefly Hh reporter signal, replicate 1 = 58954; firefly Hh reporter signal, replicate 2 = 44944; firefly Hh reporter signal, replicate 3 = 41158; Renilla reference signal, replicate 1 = 7093; Renilla reference signal, replicate 2 = 2134.
For yrt [DRSC16559] the deposit lists firefly Hh reporter signal, replicate 1 = 1.66e5; firefly Hh reporter signal, replicate 2 = 60450; Renilla reference signal, replicate 1 = 6435; Renilla reference signal, replicate 2 = 1690.
Depletion of CG17211 [DRSC02587] gave: firefly Hh reporter signal, replicate 1 = 1.24e5; firefly Hh reporter signal, replicate 2 = 58987; Renilla reference signal, replicate 1 = 3600; Renilla reference signal, replicate 2 = 5680.
For oc [DRSC18808], the entry reads firefly Hh reporter signal, replicate 1 = 99018; firefly Hh reporter signal, replicate 2 = 2.90e5; Renilla reference signal, replicate 1 = 2835; Renilla reference signal, replicate 2 = 10699.
With knock-down of CG11899 [DRSC16656] the results were firefly Hh reporter signal, replicate 1 = 98298; firefly Hh reporter signal, replicate 2 = 91064; Renilla reference signal, replicate 1 = 2128; Renilla reference signal, replicate 2 = 2714.
For CG8545 [DRSC07210], the entry reads firefly Hh reporter signal, replicate 1 = 54857; firefly Hh reporter signal, replicate 2 = 50918; Renilla reference signal, replicate 1 = 3065; Renilla reference signal, replicate 2 = 3300.
Against Rsf1 [DRSC03423], the values are firefly Hh reporter signal, replicate 1 = 1.05e5; firefly Hh reporter signal, replicate 2 = 60801; Renilla reference signal, replicate 1 = 4160; Renilla reference signal, replicate 2 = 6743.
Mal-A2 [DRSC07460] gave firefly Hh reporter signal, replicate 1 = 1.07e5; firefly Hh reporter signal, replicate 2 = 64194; Renilla reference signal, replicate 1 = 2728; Renilla reference signal, replicate 2 = 5836.
Obp8a [DRSC17868] scored firefly Hh reporter signal, replicate 1 = 83461; firefly Hh reporter signal, replicate 2 = 1.37e5; Renilla reference signal, replicate 1 = 2195; Renilla reference signal, replicate 2 = 4900.
